Data as given in patent publication US7846651B2, “Epitope/peptide recognized by HLA-A2402-restricted Ep-CAM-specific CTL and use of the same” (Aichi Prefecture, priority 2004, dated 2010).
At least one peptide structure holds a part that was inferred or is arguable (an end, a ring closure or a residue).

Tested on: CD8 positive T-cells of HLA-A2402 positive healthy donors
Experiment: ELISPOT assay of IFN-γ
Assay type: cell-based, human
Settings: T-cell lines stimulated by peptide-pulsed dendritic cells, incubated with peptide-pulsed T2-A24 cells
Method: Subsequently, self-derived dendritic cells were pulsed at room temperature for 2 to 4 hours with each of the Ep-CAM synthesis peptides with a concentration of 10 μM in an AIM-V culture medium (product of Gibco) containing 5×10^−5 M β-mercaptoethanol, followed by irradiation (33Gy).
The dendritic cells (1×10^5 cells) were then cocultivated in a culture tube with CD8 positive T lymphocytes (1×10^6 lymphocytes) in a RPMI1640 culture medium containing 10% human blood serum, 25 ng/mL recombinant human IL-7 (product of R&D systems company), and 5 ng/mL recombinant human IL-12 (product of R&D systems company).
After seven days of cultivation, the cells were stimulated by adding 1×10^5 peptide-pulsed self-derived dendritic cells prepared as above. After a further seven days of cultivation, the cells were stimulated 3 times by the same procedure. After each restimulation, human recombinant IL-2 (product of Takeda Pharmaceutical Company, Ltd.) was added to give a final concentration of 20 units/ml. Actively proliferating cells were divided into 2 or 3 tubes as necessary, and cultured in a fresh culture medium containing 20 units/ml of IL-2. […]
The plate was incubated at 37° C. for 20 hours in a 5% CO2 incubator, and thoroughly washed with PBS containing 0.05% Tween 20. […] The number of diffused large spots was counted under the microscope.

**Q.** For `CC[C@H](C)[C@H](NC(=O)[C@H](Cc1ccccc1)NC(=O)[C@H](CCCCN)NC(=O)[C@@H]1CCCN1C(=O)[C@H](CC(=O)O)NC(=O)[C@H](CC(C)C)NC(=O)[C@H](CCC(N)=O)NC(=O)[C@H](Cc1ccc(O)cc1)NC(=O)[C@@H](N)CCCNC(=N)N)C(=O)O` [Ep173], which “production of IFN-γ spots” value is on record?
**A.** predominant production of IFN-γ spots
